Laboratory results: PubChem BioAssay AID1259254 (NCATS, 2017)
The deposit covers about 59,000 reagents; shown is a random part of them. About 1,550 of them (2.6%) were called active. 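G2 share is only a proxy for re-replication; each gene was hit by three separate siRNAs, and active genes were retested.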 Raw values are not corrected between plates. Unmarked entries are inactive. The numbers tell different reagents against one gene apart. No sequences are given here. Not given: the amount of reagent.

Test: 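Gene knock-downs that lead to re-replication, shown by excess G2 DNA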 (primary screen)
Cell system: human HCT116 colorectal cancer cells
Knock-down reagent: single siRNA against human genes
Time to read-out: 3 days
Measured: 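Imaged Hoechst DNA stain sorts each cell into a cycle phase by DNA amount; per plate, G2 fraction set to 0% for non-targeting and 100% for GMNN siRNA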
Direction: G2 robust z-score and G2 cells, % of GMNN control: higher = more G2 cells, more excess DNA replication; raw share of cells in G2: higher = larger share of cells with G2 DNA content
Active means: 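Active siRNAs have a G2 robust z of 5 or more median absolute deviations over the median, which in these data means about 38% or higher of GMNN control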

Gene | reagent | G2 robust z-score | G2 cells, % of GMNN control | raw share of cells in G2 (%)
SMC6 | 1 | 0.404 | 5.81 | 7.85
SMC6 | 2 | 1.52 | 13.7 | 9.15
SMC6 | 3 | -0.604 | -1.28 | 4.31
SLC35B2 | 1 | 1.37 | 12.6 | 8.89
SLC35B2 | 2 | 0.562 | 6.92 | 7.66
SLC35B2 | 3 | -0.538 | -0.818 | 5.55
UBALD1 | 1 | -1.1 | -4.74 | 0.432
UBALD1 | 2 | 0.0905 | 3.6 | 5.54
UBALD1 | 3 | -0.897 | -3.34 | 2.33
CDC45 | 1 | 0.198 | 4.36 | 6.79
CDC45 | 2 | 0.167 | 4.14 | 6.42
CDC45 | 3 | 6.47 (active) | 48.5 | 22.1
TTC39B | 1 | -1.04 | -4.35 | 2.04
TTC39B | 2 | -0.509 | -0.614 | 2.75
TTC39B | 3 | -0.0786 | 2.41 | 3.53
KLHL41 | 1 | -0.548 | -0.887 | 4.93
KLHL41 | 2 | -0.601 | -1.26 | 3.42
KLHL41 | 3 | 0.0235 | 3.13 | 4.55
USP17L2 | 1 | 2.59 | 21.2 | 11
USP17L2 | 2 | -0.00385 | 2.94 | 4.68
USP17L2 | 3 | -0.306 | 0.814 | 4.98
SEMG1 | 1 | -0.872 | -3.17 | 3.62
SEMG1 | 2 | -0.153 | 1.89 | 4.97
SEMG1 | 3 | 0.0562 | 3.36 | 4.57
MAN1A2 | 1 | -1.48 | -7.47 | 3.53
MAN1A2 | 2 | 0.148 | 4.01 | 5.14
MAN1A2 | 3 | -0.931 | -3.58 | 4.14

The list goes on, starting with the last 6 of the part before.
Gene | reagent | G2 robust z-score | G2 cells, % of GMNN control | raw share of cells in G2 (%)
SEMG1 | 1 | -0.872 | -3.17 | 3.62
SEMG1 | 2 | -0.153 | 1.89 | 4.97
SEMG1 | 3 | 0.0562 | 3.36 | 4.57
MAN1A2 | 1 | -1.48 | -7.47 | 3.53
MAN1A2 | 2 | 0.148 | 4.01 | 5.14
MAN1A2 | 3 | -0.931 | -3.58 | 4.14
PRPSAP2 | 1 | 0.664 | 7.64 | 8.13
PRPSAP2 | 2 | -1.52 | -7.73 | 2.81
PRPSAP2 | 3 | 0.886 | 9.2 | 7.27
PSMC2 | 1 | 1.72 | 15 | 9.15
PSMC2 | 2 | 3.79 | 29.7 | 15.2
PSMC2 | 3 | 1.37 | 12.6 | 9.5
HIPK3 | 1 | -0.284 | 0.966 | 5.74
HIPK3 | 2 | 10.3 (active) | 75.3 | 30.5
HIPK3 | 3 | -1.16 | -5.22 | 2.18
CPB2 | 1 | 0.123 | 3.83 | 6.89
CPB2 | 2 | -0.765 | -2.42 | 4.05
CPB2 | 3 | -0.931 | -3.59 | 2.57
APOD | 1 | 0.19 | 4.3 | 6.18
APOD | 2 | -0.506 | -0.595 | 4.86
APOD | 3 | -1.14 | -5.07 | 2.1
GTSCR1 | 1 | -0.297 | 0.88 | 3.47
GTSCR1 | 2 | 0.877 | 9.14 | 6.89
GTSCR1 | 3 | 0.201 | 4.38 | 4.63
SPRY2 | 1 | -0.927 | -3.56 | 5.08
SPRY2 | 2 | 0.693 | 7.85 | 9.1
SPRY2 | 3 | -1.14 | -5.03 | 2.21
OR4F4 | 1 | -0.415 | 0.0467 | 4.43
OR4F4 | 2 | -0.723 | -2.12 | 3.02
OR4F4 | 3 | 4.74 | 36.3 | 16
ARID1B | 1 | -0.331 | 0.641 | 4.57
ARID1B | 2 | -1.19 | -5.4 | 2.26
ARID1B | 3 | -1.09 | -4.72 | 3.69
LOC646012 | 1 | -1.02 | -4.18 | 2.2
LOC646012 | 2 | 0.275 | 4.91 | 5.04
LOC646012 | 3 | 0.35 | 5.43 | 4.77
TCAF2 | 1 | -1.22 | -5.59 | 1.57
TCAF2 | 2 | -0.477 | -0.388 | 3.5
TCAF2 | 3 | -0.728 | -2.15 | 2.21
RNF11 | 1 | 4.48 | 34.5 | 14.5
RNF11 | 2 | -0.677 | -1.8 | 2.16
RNF11 | 3 | 1.15 | 11 | 10.9
TNFRSF11B | 1 | -0.712 | -2.04 | 4.43
TNFRSF11B | 2 | -0.219 | 1.43 | 5.33
TNFRSF11B | 3 | -0.849 | -3 | 2.17
PPIH | 1 | -1.22 | -5.63 | 2.02
PPIH | 2 | 0.723 | 8.06 | 9.2
PPIH | 3 | 4.41 | 34 | 19.9
